Experimental data published in article doi:10.1101/2020.04.06.007948.
Results are given in words; binding and its absence hold for the method and conditions named. Some binding calls cover weakened binding; strength is not graded here. Where a sequence is shown, tags or fusion partners need not be part of it.

Biological target: T1, α-DG of wild-type DG expressed from adenovirus (Ad-DG) in POMK/DG KO HAP1 cells (UniProt Q28685)
T1 sequence (chain, core M3 not phosphorylated (POMK KO cells); short, non-extended matriglycan): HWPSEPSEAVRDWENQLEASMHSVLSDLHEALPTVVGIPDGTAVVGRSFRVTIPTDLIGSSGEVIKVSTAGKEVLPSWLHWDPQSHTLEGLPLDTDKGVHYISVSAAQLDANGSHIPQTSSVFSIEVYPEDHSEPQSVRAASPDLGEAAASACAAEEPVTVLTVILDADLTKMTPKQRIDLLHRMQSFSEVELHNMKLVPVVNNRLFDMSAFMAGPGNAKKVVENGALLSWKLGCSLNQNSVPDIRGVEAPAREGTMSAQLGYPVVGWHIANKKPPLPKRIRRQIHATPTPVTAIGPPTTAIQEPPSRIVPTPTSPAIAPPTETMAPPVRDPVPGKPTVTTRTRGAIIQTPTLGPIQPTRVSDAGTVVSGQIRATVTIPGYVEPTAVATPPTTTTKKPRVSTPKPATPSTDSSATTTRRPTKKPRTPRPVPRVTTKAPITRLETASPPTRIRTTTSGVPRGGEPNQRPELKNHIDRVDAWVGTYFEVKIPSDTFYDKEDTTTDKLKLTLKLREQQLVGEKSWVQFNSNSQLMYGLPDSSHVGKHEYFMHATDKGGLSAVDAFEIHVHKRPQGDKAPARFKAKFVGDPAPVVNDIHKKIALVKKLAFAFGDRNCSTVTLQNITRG
Assay: far-Western, overlay or dot blot

- binding: binds
Substance: mouse Engelbreth-Holm-Swarm (EHS) laminin (from UniProt P19137 25-3083; P02469 22-1786; P02468 34-1607) (complex)
